# PubChem BioAssay AID686938, Drosophila RNAi Screening Center – 2013
# Purpose: 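Knock-downs reducing store-operated calcium influx in Drosophila cells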 (primary screen)
# Cells: Drosophila S2R+ cells
# Knock-down reagent: long dsRNA against Drosophila genes, about 0.25 µg dsRNA per well, roughly 10,000 cells
# Duration: 5 days of knock-down before the calcium assay
# Conditions: thapsigargin (SERCA pump blocker) to empty calcium stores; entry signal taken 4 min after adding it
# Read-out: 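Per-well fluo-4 fluorescence in two replicates, unnormalised, measured in resting cells and 4 min after store depletion by the SERCA blocker thapsigargin; ratio of the two present in few wells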
# Reading the numbers: calcium entry signal: higher = stronger calcium signal after store depletion; entry to resting ratio: higher = more calcium entry relative to resting level; resting calcium signal: higher = higher resting calcium signal
# Rule for the call: 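Called when the plate z-score of the entry-to-rest ratio, mean of duplicates, falls below −3; wells with low overall dye signal (Fmax z below −2) or more than five off-targets excluded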
# Calls: active = strongly reduced calcium entry; inactive = no strong reduction
# In all, the deposit lists about 23,000 reagents; this is an unselected part of those with a known target gene and a result. Over the whole deposit, 75 (0.33%) were called active. 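Raw plate signals without normalisation; calls rest on plate z-scores that were not deposited; ratio present for only 364 wells.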 Names joined by + are all predicted targets of the reagent. Not stated in the record: the dose of the treatment.
The first 3 records, to show the layout:
target gene,PubChem SID,"calcium entry signal, replicate 1 (fluorescence units)","calcium entry signal, replicate 2 (fluorescence units)",entry to resting ratio,"resting calcium signal, replicate 1 (fluorescence units)","resting calcium signal, replicate 2 (fluorescence units)",Call
Gat,SID104196936,6.15e7,5.52e7,2.1,2.90e7,2.51e7,inactive
Prosalpha1R + Prosalpha1,SID104187307,1.64e7,1.82e7,,1.10e7,1.15e7,inactive
Lcp65Ad,SID104191003,2.88e7,5.41e7,,1.47e7,2.12e7,inactive

The list itself, from the first entry:
target gene,PubChem SID,"calcium entry signal, replicate 1 (fluorescence units)","calcium entry signal, replicate 2 (fluorescence units)",entry to resting ratio,"resting calcium signal, replicate 1 (fluorescence units)","resting calcium signal, replicate 2 (fluorescence units)",Call
Gat,SID104196936,6.15e7,5.52e7,2.1,2.90e7,2.51e7,inactive
Prosalpha1R + Prosalpha1,SID104187307,1.64e7,1.82e7,,1.10e7,1.15e7,inactive
Lcp65Ad,SID104191003,2.88e7,5.41e7,,1.47e7,2.12e7,inactive
CG10175,SID104193420,3.45e7,4.09e7,,1.55e7,1.92e7,inactive
CG10175,SID104193992,2.83e7,4.82e7,,1.63e7,1.78e7,inactive
CG10175,SID104201586,2.00e7,4.58e7,,9.42e6,2.26e7,inactive
CG16772,SID104182308,4.90e7,3.62e7,,2.26e7,1.69e7,inactive
Jhbp13,SID104182705,4.91e7,3.38e7,,1.94e7,1.52e7,inactive
l(1)sc,SID104198581,3.78e7,3.34e7,2.2,1.74e7,1.46e7,inactive
velo,SID104188633,2.87e7,3.86e7,,1.51e7,1.87e7,inactive
velo,SID104189490,3.33e7,2.48e7,,2.24e7,1.17e7,inactive
fs(1)Yb,SID104198569,3.61e7,4.79e7,1.9,1.88e7,1.98e7,inactive
Acox3,SID104183043,2.27e7,2.23e7,,1.27e7,1.09e7,inactive
CG17260,SID104180289,4.29e7,,,2.50e7,,inactive
CG13843,SID104194485,4.13e7,3.15e7,,1.89e7,1.35e7,inactive
Nurf-38,SID104184421,4.72e7,4.33e7,,2.61e7,2.49e7,inactive
Ent1,SID104180122,3.65e7,,,2.08e7,,inactive
rumpel,SID104198228,3.26e7,3.48e7,,1.68e7,1.86e7,inactive
CG13527,SID104183961,3.95e7,5.22e7,,2.00e7,2.31e7,inactive
CG11125,SID104185834,3.91e7,4.00e7,,1.92e7,1.94e7,inactive
CG31835 + CG42585,SID104181204,4.40e7,3.25e7,,2.19e7,1.56e7,inactive
CG10911,SID104185800,3.90e7,3.94e7,,1.83e7,1.94e7,inactive
Pp2B-14D,SID104200062,2.25e7,2.82e7,,1.30e7,1.36e7,inactive
Pp2B-14D,SID104202672,4.15e7,3.23e7,,2.07e7,1.58e7,inactive
CG4988,SID104182592,4.59e7,5.18e7,,2.27e7,2.24e7,inactive
Gclm,SID104195469,3.83e7,2.58e7,,1.84e7,1.23e7,inactive
Droj2,SID104196242,3.11e7,3.59e7,,1.43e7,1.74e7,inactive
CG42260,SID104183964,3.81e7,4.79e7,,2.03e7,2.08e7,inactive
CG42260,SID104184177,4.32e7,4.94e7,,2.20e7,2.14e7,inactive
Usp30,SID104198057,4.15e7,3.54e7,,1.88e7,1.54e7,inactive
bero,SID104183003,4.28e7,4.72e7,,2.18e7,2.04e7,inactive
phtf,SID104184815,3.61e7,,,1.63e7,,inactive
CG31244,SID104201296,3.04e7,2.62e7,,1.54e7,1.20e7,inactive
Sec61gamma,SID104199362,3.31e7,3.66e7,,2.30e7,2.19e7,active
CG4377,SID104184259,3.17e7,,,1.60e7,,inactive
thoc5,SID104184119,3.65e7,,,1.69e7,,inactive
CtsK2,SID104186689,3.19e7,2.63e7,,1.43e7,1.38e7,inactive
Prp38,SID104186852,1.92e7,1.92e7,,9.67e6,9.97e6,inactive
CNPYb,SID104189637,3.66e7,5.20e7,,1.92e7,3.53e7,inactive
Tpr2,SID104183253,5.76e7,,,2.67e7,,inactive
pwn,SID104185827,4.14e7,3.02e7,,1.96e7,1.52e7,inactive
Obp47a,SID104186047,3.47e7,3.42e7,,1.74e7,1.59e7,inactive
CG5404,SID104195585,2.55e7,3.54e7,,1.41e7,1.82e7,inactive
Snoo,SID104180800,4.41e7,4.39e7,,2.19e7,1.89e7,inactive
Snoo,SID104182796,4.61e7,,,2.48e7,,inactive
Snoo,SID104182827,3.57e7,4.92e7,,1.67e7,2.14e7,inactive
CG31600,SID104201980,3.29e7,3.09e7,,1.75e7,1.32e7,inactive
Snmp1,SID104195960,3.69e7,3.77e7,,4.00e7,1.72e7,inactive
CG2964,SID104180346,4.27e7,5.83e7,,1.88e7,2.41e7,inactive
tilB,SID104200426,4.43e7,4.69e7,,2.07e7,1.85e7,inactive
CG12608,SID104199264,2.60e7,2.79e7,,1.27e7,1.50e7,inactive
bap,SID104196700,4.75e7,2.41e7,,2.10e7,1.26e7,inactive
CG14329,SID104194600,2.85e7,5.34e7,,1.70e7,7.04e7,inactive
Polr1C,SID104182511,2.07e7,,,1.10e7,,inactive
CG10163,SID104189502,2.77e7,4.32e7,,1.37e7,1.98e7,inactive
CG8012,SID104190743,3.02e7,3.07e7,,1.48e7,1.29e7,inactive
tay,SID104199934,3.68e7,3.81e7,,1.69e7,1.77e7,inactive
CG3638,SID104198325,4.82e7,5.68e7,2.1,2.33e7,2.32e7,inactive
